Article PMC7819943, “Rice protein-binding microarrays: a tool to detect cis-acting elements near promoter regions in rice”
This is one part of the list.

biological target: T1, OsSMF1 (Oryza sativa, UniProt Q6ZLB0 1-436); assay: protein-binding microarray (RPBM); PBS, 2% BSA, 51.3 ng/ul salmon testes DNA, 50 uM zinc acetate, 200 nM TF, 25 C, 1 h; high values mean tight binding; conditions: protein: recombinant; tags: N-terminal polyhistidine and DsRed monomer fusion (pET32a); chain copies: 2; label: CyDye5-dUTP incorporated in the synthesized complementary strand; 3' TTTTT single-stranded linker to array surface; dsDNA, one strand shown
T1 sequence: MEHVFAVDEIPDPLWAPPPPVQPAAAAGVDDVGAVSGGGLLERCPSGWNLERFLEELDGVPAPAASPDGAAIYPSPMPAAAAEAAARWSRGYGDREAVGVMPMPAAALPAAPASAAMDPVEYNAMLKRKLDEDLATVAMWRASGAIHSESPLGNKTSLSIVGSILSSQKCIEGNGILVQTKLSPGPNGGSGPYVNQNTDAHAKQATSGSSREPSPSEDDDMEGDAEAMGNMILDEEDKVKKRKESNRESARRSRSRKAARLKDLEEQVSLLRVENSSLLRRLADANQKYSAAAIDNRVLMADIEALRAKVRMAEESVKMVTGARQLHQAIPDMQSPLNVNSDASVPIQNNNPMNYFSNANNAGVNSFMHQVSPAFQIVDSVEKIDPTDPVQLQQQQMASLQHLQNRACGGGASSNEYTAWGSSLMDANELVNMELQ
Procedure, shortened: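 Polyhistidine-tagged DsRed fusions of transcription factors, joined at the N-terminus, were expressed in E. coli BL21-CodonPlus and isolated on Ni–NTA. They were incubated at 200 nM for 1 h at 25 °C on a custom Agilent array, double-stranded and BSA-blocked, in PBS with 2% BSA, salmon testes DNA and 50 µM zinc acetate. The binding signal is per-feature fluorescence intensity (arbitrary units) read on an Axon 4000B scanner after washing.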

Row | Sequence | binding signal
1 | CCAAAATGAGTTGAAATGAATTTTGTATGCATTTTATAAACGGAGTCACCTAGTGCAG | 6000 fluorescence intensity (a.u.)
2 | CCTCGATCGACAACTCCGACGTATTTCCCTGCAGATATACCGGAGTCACCTAGTGCAG | 3150 fluorescence intensity (a.u.)
3 | CCCGCCCACGGGATCTCTCGCTGACTCGGACGACGACATCCGGAGTCACCTAGTGCAG | 8930 fluorescence intensity (a.u.)
4 | CGTGCCCTCACCACTCACCACCACGTCGTCTCCCGGCGACCGGAGTCACCTAGTGCAG | 5300 fluorescence intensity (a.u.)
5 | ACGGTCAAATAGCCGTTAGTGCCACGTGGCGCCTTCCCATCGGAGTCACCTAGTGCAG | 32100 fluorescence intensity (a.u.)
6 | TTAGACCCCTGAACCGGCGTCTCCCGTCAGCCAGCCTTCGCGGAGTCACCTAGTGCAG | 3280 fluorescence intensity (a.u.)
7 | TCTTCAGGAGAACGCATGACGCATTGCGTGCGTCTGAATACGGAGTCACCTAGTGCAG | 3800 fluorescence intensity (a.u.)
8 | GCTCGCCCAGTGAGTCTGTTGCGTAATAGTAATAATTGATCGGAGTCACCTAGTGCAG | 3950 fluorescence intensity (a.u.)
9 | GCGTAGGCGCCGACGACGGCGTCATCAGCGACGACGACATCGGAGTCACCTAGTGCAG | 3430 fluorescence intensity (a.u.)
10 | GGGTTACTTTCTCGCGTCACAAATTTTAGCCCTTCTTCTTCGGAGTCACCTAGTGCAG | 3430 fluorescence intensity (a.u.)
11 | TAGTCTCCTCCAATCCCCGAATTGTTCATCGTCTGTCGTCCGGAGTCACCTAGTGCAG | 3280 fluorescence intensity (a.u.)
12 | CCTCCGATCGATCGATGTGTGTTGGATGGCGCGTCCGTCTCGGAGTCACCTAGTGCAG | 3840 fluorescence intensity (a.u.)
13 | TCCAAAATATAGCAACTTTTGACATCATTATATTTTGGGACGGAGTCACCTAGTGCAG | 5150 fluorescence intensity (a.u.)
14 | TTTTGGGTGAATGTGACACACCCTAATACCATGAATCTAGCGGAGTCACCTAGTGCAG | 3760 fluorescence intensity (a.u.)
15 | CCTGCATGCGCGTGACGCACACCAATCATATCACAACACTCGGAGTCACCTAGTGCAG | 4450 fluorescence intensity (a.u.)
16 | ATACCGTACGACTGTCAATTGTCATGATACCGACGGTTACCGGAGTCACCTAGTGCAG | 4440 fluorescence intensity (a.u.)
17 | TGGAGTTCTGCCCTGCAGGGGATCACAGAGCAGGGCATAGCGGAGTCACCTAGTGCAG | 32000 fluorescence intensity (a.u.)
18 | CATTACATCCAATCCAAGCGTGATGACATATCATCATCCTCGGAGTCACCTAGTGCAG | 5270 fluorescence intensity (a.u.)
19 | CGGGATGATGATGAGGAGCTGTTTGAGGGGAACTGGGTGGCGGAGTCACCTAGTGCAG | 29900 fluorescence intensity (a.u.)
20 | GCGCCCCATCCACGCGTCATGCATCCACGTCGGGGCTGCACGGAGTCACCTAGTGCAG | 11600 fluorescence intensity (a.u.)
21 | AGCGGAGATCGATATATCGCGACGTGTACGGCCACGTCACCGGAGTCACCTAGTGCAG | 30600 fluorescence intensity (a.u.)

Given as labelled records: part of the list above
CCCGCCCACGGGATCTCTCGCTGACTCGGACGACGACATCCGGAGTCACCTAGTGCAG
  binding signal = 8930 fluorescence intensity (a.u.)
TTTTGGGTGAATGTGACACACCCTAATACCATGAATCTAGCGGAGTCACCTAGTGCAG
  binding signal = 3760 fluorescence intensity (a.u.)

(continued)

Row | Sequence | binding signal
22 | TGACAGTAGTTCGTGTTCAGTGTACGTGTTCAGTGTTCAGCGGAGTCACCTAGTGCAG | 4180 fluorescence intensity (a.u.)
23 | ATCGCTCAGTACCTAAACATTCATTCATCATCGGGCGAACCGGAGTCACCTAGTGCAG | 16600 fluorescence intensity (a.u.)
24 | TCTCCAGCGACGCAATTGCGGGCCCCGGGCCGGCGCCAACCGGAGTCACCTAGTGCAG | 3200 fluorescence intensity (a.u.)
25 | CACTTGTTTTATCGGTGTGAATTGATGCTGTGCTTGTCATCGGAGTCACCTAGTGCAG | 3490 fluorescence intensity (a.u.)
26 | TGTACCTGAAACTATTGTTATGTCCAGGTCAGGAGCAGTGCGGAGTCACCTAGTGCAG | 3360 fluorescence intensity (a.u.)
27 | GATGGCTTACGTAATCGGATCCGCCACGCCATCCCGTGCTCGGAGTCACCTAGTGCAG | 11700 fluorescence intensity (a.u.)
28 | TTTCACCGATAGCATCATATGTGACGCGTAACTGAAACAACGGAGTCACCTAGTGCAG | 4620 fluorescence intensity (a.u.)
29 | AAACAACCAACTTTGCCTGCAAAACGGCAAAGAGATTAACCGGAGTCACCTAGTGCAG | 3920 fluorescence intensity (a.u.)
30 | GTTATCCCTAACGAGCTAAAATGCCAGCTCAGCTCGTTAACGGAGTCACCTAGTGCAG | 7600 fluorescence intensity (a.u.)
31 | GCATTTCAGCCTCCTCATCAAAGAAATGCTGACAAGAAATCGGAGTCACCTAGTGCAG | 3520 fluorescence intensity (a.u.)
32 | TATATATATATATATATATATATATATAACACACACCGTGCGGAGTCACCTAGTGCAG | 3560 fluorescence intensity (a.u.)
33 | ATGACGATTGAGAGAGATGATGTAACTATTTATACTCATTCGGAGTCACCTAGTGCAG | 3640 fluorescence intensity (a.u.)
34 | GGAGACGGCGGCGACAGAGGGAGAGGGGAAAGGTGTTTTGCGGAGTCACCTAGTGCAG | 4920 fluorescence intensity (a.u.)
35 | TAACCATGTAATTCCTCTGAAAATCCACAGATGAACTAGCCGGAGTCACCTAGTGCAG | 3360 fluorescence intensity (a.u.)
36 | GCTGCAGCAGCAGGTGAGGTCCAACGAGATATGCACATATCGGAGTCACCTAGTGCAG | 8050 fluorescence intensity (a.u.)
37 | CACACTCTGAAACACACGCCGGTCGCCGTCGTCAACGTTGCGGAGTCACCTAGTGCAG | 4320 fluorescence intensity (a.u.)
38 | TGTGTCTTATTCAAACTTTTAAACATGGGAGGTGTCAGCCCGGAGTCACCTAGTGCAG | 4950 fluorescence intensity (a.u.)
39 | GCGGCATATGAGACCGGGAAGGAGACGCTGACCGGCGCACCGGAGTCACCTAGTGCAG | 33800 fluorescence intensity (a.u.)
40 | GCATCTCCATGGTCTCCTTGTCGACGCGGATCTCCTCCACCGGAGTCACCTAGTGCAG | 3180 fluorescence intensity (a.u.)
41 | GGCACATGTACGTATGTTTGATGTCACATAAATACGGTAACGGAGTCACCTAGTGCAG | 3470 fluorescence intensity (a.u.)
42 | ATTAGCACATTGGCCCACACGTAATACTCTCATTTGCTAGCGGAGTCACCTAGTGCAG | 3580 fluorescence intensity (a.u.)
